In PMC3673817 one finds binding data, which are given here for 1 substance.

Sequences of proteins named here, by UniProt entry; tags and fusion partners are left off.
UniProt Q15075: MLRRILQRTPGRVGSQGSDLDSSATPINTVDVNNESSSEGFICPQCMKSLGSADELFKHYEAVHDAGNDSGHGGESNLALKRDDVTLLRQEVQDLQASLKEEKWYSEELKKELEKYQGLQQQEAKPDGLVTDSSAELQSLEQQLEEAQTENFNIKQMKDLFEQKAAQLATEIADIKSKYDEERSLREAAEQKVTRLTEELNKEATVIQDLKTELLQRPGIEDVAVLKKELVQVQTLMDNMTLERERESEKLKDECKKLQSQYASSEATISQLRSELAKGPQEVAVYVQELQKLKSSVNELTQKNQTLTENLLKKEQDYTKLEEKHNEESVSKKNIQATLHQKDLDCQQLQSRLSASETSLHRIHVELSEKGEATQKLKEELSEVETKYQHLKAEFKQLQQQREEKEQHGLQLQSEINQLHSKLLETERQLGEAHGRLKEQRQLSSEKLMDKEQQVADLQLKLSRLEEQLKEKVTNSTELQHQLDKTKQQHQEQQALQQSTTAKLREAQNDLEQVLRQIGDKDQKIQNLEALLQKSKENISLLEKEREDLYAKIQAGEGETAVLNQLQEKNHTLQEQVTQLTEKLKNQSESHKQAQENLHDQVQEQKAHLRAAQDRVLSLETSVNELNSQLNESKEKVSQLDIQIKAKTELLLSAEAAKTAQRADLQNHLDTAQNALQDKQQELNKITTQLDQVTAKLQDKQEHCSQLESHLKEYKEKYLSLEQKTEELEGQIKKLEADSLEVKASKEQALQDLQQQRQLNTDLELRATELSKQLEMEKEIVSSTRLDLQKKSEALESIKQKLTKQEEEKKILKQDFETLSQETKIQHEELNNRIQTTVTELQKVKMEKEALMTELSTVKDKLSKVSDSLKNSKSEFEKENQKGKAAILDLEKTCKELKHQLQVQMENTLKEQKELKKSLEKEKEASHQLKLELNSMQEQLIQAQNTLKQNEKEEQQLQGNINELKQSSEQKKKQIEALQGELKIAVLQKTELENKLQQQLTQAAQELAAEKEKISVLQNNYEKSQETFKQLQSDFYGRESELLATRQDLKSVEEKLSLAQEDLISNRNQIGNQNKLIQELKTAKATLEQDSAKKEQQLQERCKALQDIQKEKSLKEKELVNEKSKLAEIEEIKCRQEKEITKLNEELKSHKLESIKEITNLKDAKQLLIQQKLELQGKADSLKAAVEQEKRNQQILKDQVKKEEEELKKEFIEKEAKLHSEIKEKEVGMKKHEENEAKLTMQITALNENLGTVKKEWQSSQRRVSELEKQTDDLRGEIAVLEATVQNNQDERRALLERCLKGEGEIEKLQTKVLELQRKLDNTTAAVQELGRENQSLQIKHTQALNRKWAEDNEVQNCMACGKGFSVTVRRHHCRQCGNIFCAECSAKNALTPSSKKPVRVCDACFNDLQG

No constants are given. Whether binding was seen depends on the method and setting. Binding seen in cells or lysates may run through a third protein. Some results given as binding are weak or reduced against the parent protein; the word gives no strength.

The test addresses unmodified EEA1 (in the co-precipitation with p97) (UniProt Q15075). Kind of test: co-IP; data not shown; p97 co-precipitated with modified and unmodified EEA1.

As to p97 ATPase (from UniProt P55072 1-806), the binding result is recorded as “binds”.
